What all share (test): proximity labelling
The target of experiment [1] is GFI1B-ΔSNAG-BirA*:HA (mouse (cDNA from MEL cells)) (UniProt O70237).
The target of experiment [2] is GFI1B-P2A-BirA*:HA (mouse (cDNA from MEL cells)) (UniProt O70237).
The target in experiment [3] is GFI1B-BirA*:HA (mouse (cDNA from MEL cells)) (UniProt O70237).
The target of experiment [4] is T1, SNAG-BirA*:HA (mouse (cDNA from MEL cells)) (UniProt O70237).
T1 sequence: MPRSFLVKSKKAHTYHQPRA

By UniProt entry, the sequences of proteins in these tests, tags left out.
UniProt Q92769: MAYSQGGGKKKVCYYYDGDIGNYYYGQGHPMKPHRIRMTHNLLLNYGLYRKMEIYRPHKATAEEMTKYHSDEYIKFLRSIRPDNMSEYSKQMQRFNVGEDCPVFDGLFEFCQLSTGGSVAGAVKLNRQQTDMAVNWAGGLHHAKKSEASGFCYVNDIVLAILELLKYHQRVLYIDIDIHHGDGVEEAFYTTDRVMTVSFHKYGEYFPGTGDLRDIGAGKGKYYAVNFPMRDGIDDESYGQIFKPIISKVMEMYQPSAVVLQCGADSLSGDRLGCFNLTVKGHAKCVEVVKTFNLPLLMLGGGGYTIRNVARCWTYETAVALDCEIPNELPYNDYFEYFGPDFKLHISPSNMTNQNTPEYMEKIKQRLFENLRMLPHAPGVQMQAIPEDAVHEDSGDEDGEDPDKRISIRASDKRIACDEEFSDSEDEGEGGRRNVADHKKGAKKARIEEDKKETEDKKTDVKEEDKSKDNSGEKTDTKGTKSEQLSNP
UniProt Q92922: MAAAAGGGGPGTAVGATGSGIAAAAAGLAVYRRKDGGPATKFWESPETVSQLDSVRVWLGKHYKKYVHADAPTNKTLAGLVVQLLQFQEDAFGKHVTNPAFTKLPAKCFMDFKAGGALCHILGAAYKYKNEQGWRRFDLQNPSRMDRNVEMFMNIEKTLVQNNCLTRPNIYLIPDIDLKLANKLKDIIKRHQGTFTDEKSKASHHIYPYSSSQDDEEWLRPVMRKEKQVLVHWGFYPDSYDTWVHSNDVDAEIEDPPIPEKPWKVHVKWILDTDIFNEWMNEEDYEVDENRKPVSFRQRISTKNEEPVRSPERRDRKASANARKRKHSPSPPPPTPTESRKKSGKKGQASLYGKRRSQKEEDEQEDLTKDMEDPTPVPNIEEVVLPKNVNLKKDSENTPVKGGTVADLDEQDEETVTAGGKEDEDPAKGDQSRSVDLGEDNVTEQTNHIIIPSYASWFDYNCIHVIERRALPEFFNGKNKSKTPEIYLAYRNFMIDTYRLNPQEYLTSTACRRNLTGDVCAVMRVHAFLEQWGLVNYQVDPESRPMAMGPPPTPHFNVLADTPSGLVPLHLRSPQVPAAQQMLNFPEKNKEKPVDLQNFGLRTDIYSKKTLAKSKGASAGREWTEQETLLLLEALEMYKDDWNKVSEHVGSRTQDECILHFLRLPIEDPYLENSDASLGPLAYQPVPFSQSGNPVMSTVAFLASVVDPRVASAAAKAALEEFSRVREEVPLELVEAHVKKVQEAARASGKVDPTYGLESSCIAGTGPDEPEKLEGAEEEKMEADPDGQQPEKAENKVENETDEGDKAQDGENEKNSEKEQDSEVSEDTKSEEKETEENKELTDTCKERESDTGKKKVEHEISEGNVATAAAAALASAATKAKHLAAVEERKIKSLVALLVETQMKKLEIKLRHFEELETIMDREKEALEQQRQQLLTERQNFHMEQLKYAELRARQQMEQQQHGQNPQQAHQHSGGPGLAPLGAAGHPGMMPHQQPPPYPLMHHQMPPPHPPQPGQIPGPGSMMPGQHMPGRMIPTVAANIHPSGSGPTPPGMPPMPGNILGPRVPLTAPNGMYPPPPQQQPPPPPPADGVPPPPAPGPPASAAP
UniProt Q12824: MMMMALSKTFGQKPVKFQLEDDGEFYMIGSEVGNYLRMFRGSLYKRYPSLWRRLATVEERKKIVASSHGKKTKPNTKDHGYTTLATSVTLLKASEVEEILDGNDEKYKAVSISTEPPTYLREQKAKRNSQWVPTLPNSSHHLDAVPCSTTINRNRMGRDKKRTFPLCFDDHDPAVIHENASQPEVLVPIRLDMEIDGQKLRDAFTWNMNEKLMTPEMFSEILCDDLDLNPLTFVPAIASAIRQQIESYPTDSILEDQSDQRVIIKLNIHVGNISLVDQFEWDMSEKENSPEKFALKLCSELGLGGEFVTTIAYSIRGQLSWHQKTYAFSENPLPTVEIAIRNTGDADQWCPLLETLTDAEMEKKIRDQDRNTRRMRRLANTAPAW
UniProt Q13547: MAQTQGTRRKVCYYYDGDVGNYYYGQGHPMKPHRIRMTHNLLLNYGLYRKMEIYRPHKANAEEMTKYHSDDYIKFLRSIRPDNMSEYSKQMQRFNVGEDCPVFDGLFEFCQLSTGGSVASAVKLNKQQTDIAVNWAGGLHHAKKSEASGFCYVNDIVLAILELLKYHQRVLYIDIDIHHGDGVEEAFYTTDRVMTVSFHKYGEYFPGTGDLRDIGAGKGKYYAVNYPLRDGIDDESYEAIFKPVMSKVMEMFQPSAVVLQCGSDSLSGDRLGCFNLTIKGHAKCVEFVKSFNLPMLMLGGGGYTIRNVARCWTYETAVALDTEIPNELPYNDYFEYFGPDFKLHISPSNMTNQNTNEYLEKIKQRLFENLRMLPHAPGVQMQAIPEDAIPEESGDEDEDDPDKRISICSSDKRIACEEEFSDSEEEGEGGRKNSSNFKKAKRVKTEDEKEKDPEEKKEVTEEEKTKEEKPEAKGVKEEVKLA

For experiment [5], the target named is GFI1B-ΔSNAG-BirA*:HA (mouse (cDNA from MEL cells)) (UniProt O70237). The source holds these as a separate data set.
The target of experiment [6] is GFI1B-P2A-BirA*:HA (mouse (cDNA from MEL cells)) (UniProt O70237). This is another data set of the same source.

Where two headings read alike, the source gives them in different places. No constants are given. Whether binding was seen depends on the method and setting. Binding seen in cells or lysates may run through a third protein. Here binding means that the protein was enriched with, or labelled near, the bait; the list need not be complete. For part of these data: A no says only that the protein was not detected with the bait. For part of these data: Where a sequence is shown, tags or fusion partners need not be part of it.

On to “HDAC2, endogenous in K562 cells (from UniProt Q92769 1-488) (enzyme)”, for which the binding result in experiment [1] and in experiment [2] was “no binding” throughout.
Regarding “SMARCC1, endogenous in K562 cells (from UniProt Q92922 1-1105)”, the binding result is reported as “binds” in experiment [3] and “no binding” in experiment [4].
Take “SMARCB1, endogenous in K562 cells (from UniProt Q12824 1-385)”: the binding entry is listed as “binds” in experiment [3] and “no binding” in experiment [4].
With “HDAC1, endogenous in K562 cells (from UniProt Q13547 1-482) (enzyme)”, the binding entry in experiment [1] and in experiment [2] was “no binding” in each case.

B1: GSE1, endogenous in K562 cells (protein, UniProt Q14687 1-1217)
chain: MKGMSHEPKSPSLGMLSTATRTTATVNPLTPSPLNGALVPSGSPATSSALSAQAAPSSSFAAALRKLAKQAEEPRGSSLSSESSPVSSPATNHSSPASTPKRVPMGPIIVPPGGHSVPSTPPVVTIAPTKTVNGVWRSESRQDAGSRSSSGGRERLIVEPPLPQEKAGGPAIPSHLLSTPYPFGLSPSSVVQDSRFPPLNLQRPVHHVVPPSTVTEDYLRSFRPYHTTDDLRMSSLPPLGLDPATAAAYYHPSYLAPHPFPHPAFRMDDSYCLSALRSPFYPIPTPGSLPPLHPSAMHLHLSGVRYPPELSHSSLAALHSERMSGLSAERLQMDEELRREREREREREREREADREREKEREREREKEREQEKEREREKERERELERQREQRAREKELLAAKALEPSFLPVAELHGLRGHATEERGKPSEQLTPTRAEKLKDAGLQAPKPVQHPLHPVPTPHHTVPSLISNHGIFSLPSSSAATALLIQRTNEEEKWLARQRRLRQEKEDRQSQVSEFRQQVLEQHLDMGRPPVPAEAEHRPESTTRPGPNRHEPGGRDPPQHFGGPPPLISPKPQLHAAPTALWNPVSLMDNTLETRRAESHSLHSHPAAFEPSRQAAVPLVKVERVFCPEKAEEGPRKREPAPLDKYQPPPPPPREGGSLEHQPFLPGPGPFLAELEKSTQTILGQQRASLPQAATFGELSGPLKPGSPYRPPVPRAPDPAYIYDEFLQQRRRLVSKLDLEERRRREAQEKGYYYDLDDSYDESDEEEVRAHLRCVAEQPPLKLDTSSEKLEFLQLFGLTTQQQKEELVAQKRRKRRRMLRERSPSPPTIQSKRQTPSPRLALSTRYSPDEMNNSPNFEEKKKFLTIFNLTHISAEKRKDKERLVEMLRAMKQKALSAAVADSLTNSPRDSPAVSLSEPATQQASLDVEKPVGVAASLSDIPKAAEPGKLEQVRPQELSRVQELAPASGEKARLSEAPGGKKSLSMLHYIRGAAPKDIPVPLSHSTNGKSKPWEPFVAEEFAHQFHESVLQSTQKALQKHKGSVAVLSAEQNHKVDTSVHYNIPELQSSSRAPPPQHNGQQEPPTARKGPPTQELDRDSEEEEEEDDEDGEDEEEVPKRKWQGIEAVFEAYQEHIEEQNLERQVLQTQCRRLEARHYSLSLTAEQLSHSVAELRSQKQKMVSERERLQAELDHLRKCLALPAMHWPRGYLKGYPR
Consider B1, for which the binding result in experiment [5] and in experiment [6] was “no binding” each time.

B2: ZMYM2, endogenous in K562 cells (protein, UniProt Q9UBW7 1-1377)
chain: MDTSSVGGLELTDQTPVLLGSTAMATSLTNVGNSFSGPANPLVSRSNKFQNSSVEDDDDVVFIEPVQPPPPSVPVVADQRTITFTSSKNEELQGNDSKITPSSKELASQKGSVSETIVIDDEEDMETNQGQEKNSSNFIERRPPETKNRTNDVDFSTSSFSRSKVNAGMGNSGITTEPDSEIQIANVTTLETGVSSVNDGQLENTDGRDMNLMITHVTSLQNTNLGDVSNGLQSSNFGVNIQTYTPSLTSQTKTGVGPFNPGRMNVAGDVFQNGESATHHNPDSWISQSASFPRNQKQPGVDSLSPVASLPKQIFQPSVQQQPTKPVKVTCANCKKPLQKGQTAYQRKGSAHLFCSTTCLSSFSHKPAPKKLCVMCKKDITTMKGTIVAQVDSSESFQEFCSTSCLSLYEDKQNPTKGALNKSRCTICGKLTEIRHEVSFKNMTHKLCSDHCFNRYRMANGLIMNCCEQCGEYLPSKGAGNNVLVIDGQQKRFCCQSCVSEYKQVGSHPSFLKEVRDHMQDSFLMQPEKYGKLTTCTGCRTQCRFFDMTQCIGPNGYMEPYCSTACMNSHKTKYAKSQSLGIICHFCKRNSLPQYQATMPDGKLYNFCNSSCVAKFQALSMQSSPNGQFVAPSDIQLKCNYCKNSFCSKPEILEWENKVHQFCSKTCSDDYKKLHCIVTYCEYCQEEKTLHETVNFSGVKRPFCSEGCKLLYKQDFARRLGLRCVTCNYCSQLCKKGATKELDGVVRDFCSEDCCKKFQDWYYKAARCDCCKSQGTLKERVQWRGEMKHFCDQHCLLRFYCQQNEPNMTTQKGPENLHYDQGCQTSRTKMTGSAPPPSPTPNKEMKNKAVLCKPLTMTKATYCKPHMQTKSCQTDDTWRTEYVPVPIPVPVYIPVPMHMYSQNIPVPTTVPVPVPVPVFLPAPLDSSEKIPAAIEELKSKVSSDALDTELLTMTDMMSEDEGKTETTNINSVIIETDIIGSDLLKNSDPETQSSMPDVPYEPDLDIEIDFPRAAEELDMENEFLLPPVFGEEYEEQPRPRSKKKGAKRKAVSGYQSHDDSSDNSECSFPFKYTYGVNAWKHWVKTRQLDEDLLVLDELKSSKSVKLKEDLLSHTTAELNYGLAHFVNEIRRPNGENYAPDSIYYLCLGIQEYLCGSNRKDNIFIDPGYQTFEQELNKILRSWQPSILPDGSIFSRVEEDYLWRIKQLGSHSPVALLNTLFYFNTKYFGLKTVEQHLRLSFGTVFRHWKKNPLTMENKACLRYQVSSLCGTDNEDKITTGKRKHEDDEPVFEQIENTANPSRCPVKMFECYLSKSPQNLNQRMDVFYLQPECSSSTDSPVWYTSTSLDRNTLENMLVRVLLVKDIYDKDNYELDEDTD
On to B2, for which the binding entry in experiment [5] and in experiment [6] was “no binding” each time.

The values above are taken from article doi:10.1101/519090.
